Measured values reported in paper PMC3088716.
These are yes or no findings as the source states them, for the method shown. In cells and extracts the contact can be indirect. A result given as binding can be weak or reduced; the word gives no strength. Where a sequence is shown, tags or fusion partners need not be part of it.

Tests used:
[1] = target: T1, HA-tagged Dnttip1 (mouse) (UniProt Q99LB0); assay: co-IP; FLAG- and HA-tagged proteins co-expressed in HEK293 cells (harvested 24 hrs after transfection); whole cell lysates in MAPK buffer; agarose beads with anti-FLAG or anti-HA antibodies, 4°C, 2.5 hrs
T1 sequence: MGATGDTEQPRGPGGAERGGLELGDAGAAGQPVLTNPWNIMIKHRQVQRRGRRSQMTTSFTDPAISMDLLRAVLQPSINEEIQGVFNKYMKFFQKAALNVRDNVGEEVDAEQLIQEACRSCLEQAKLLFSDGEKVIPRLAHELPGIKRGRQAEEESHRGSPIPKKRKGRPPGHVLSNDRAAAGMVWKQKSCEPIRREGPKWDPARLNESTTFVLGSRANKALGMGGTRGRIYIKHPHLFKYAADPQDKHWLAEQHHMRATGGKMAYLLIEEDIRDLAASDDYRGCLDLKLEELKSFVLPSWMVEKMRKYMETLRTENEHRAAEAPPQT

[2] = target: T2, HA-tagged ZNF541 (mouse) (UniProt Q0GGX2); assay: as above
T2 sequence: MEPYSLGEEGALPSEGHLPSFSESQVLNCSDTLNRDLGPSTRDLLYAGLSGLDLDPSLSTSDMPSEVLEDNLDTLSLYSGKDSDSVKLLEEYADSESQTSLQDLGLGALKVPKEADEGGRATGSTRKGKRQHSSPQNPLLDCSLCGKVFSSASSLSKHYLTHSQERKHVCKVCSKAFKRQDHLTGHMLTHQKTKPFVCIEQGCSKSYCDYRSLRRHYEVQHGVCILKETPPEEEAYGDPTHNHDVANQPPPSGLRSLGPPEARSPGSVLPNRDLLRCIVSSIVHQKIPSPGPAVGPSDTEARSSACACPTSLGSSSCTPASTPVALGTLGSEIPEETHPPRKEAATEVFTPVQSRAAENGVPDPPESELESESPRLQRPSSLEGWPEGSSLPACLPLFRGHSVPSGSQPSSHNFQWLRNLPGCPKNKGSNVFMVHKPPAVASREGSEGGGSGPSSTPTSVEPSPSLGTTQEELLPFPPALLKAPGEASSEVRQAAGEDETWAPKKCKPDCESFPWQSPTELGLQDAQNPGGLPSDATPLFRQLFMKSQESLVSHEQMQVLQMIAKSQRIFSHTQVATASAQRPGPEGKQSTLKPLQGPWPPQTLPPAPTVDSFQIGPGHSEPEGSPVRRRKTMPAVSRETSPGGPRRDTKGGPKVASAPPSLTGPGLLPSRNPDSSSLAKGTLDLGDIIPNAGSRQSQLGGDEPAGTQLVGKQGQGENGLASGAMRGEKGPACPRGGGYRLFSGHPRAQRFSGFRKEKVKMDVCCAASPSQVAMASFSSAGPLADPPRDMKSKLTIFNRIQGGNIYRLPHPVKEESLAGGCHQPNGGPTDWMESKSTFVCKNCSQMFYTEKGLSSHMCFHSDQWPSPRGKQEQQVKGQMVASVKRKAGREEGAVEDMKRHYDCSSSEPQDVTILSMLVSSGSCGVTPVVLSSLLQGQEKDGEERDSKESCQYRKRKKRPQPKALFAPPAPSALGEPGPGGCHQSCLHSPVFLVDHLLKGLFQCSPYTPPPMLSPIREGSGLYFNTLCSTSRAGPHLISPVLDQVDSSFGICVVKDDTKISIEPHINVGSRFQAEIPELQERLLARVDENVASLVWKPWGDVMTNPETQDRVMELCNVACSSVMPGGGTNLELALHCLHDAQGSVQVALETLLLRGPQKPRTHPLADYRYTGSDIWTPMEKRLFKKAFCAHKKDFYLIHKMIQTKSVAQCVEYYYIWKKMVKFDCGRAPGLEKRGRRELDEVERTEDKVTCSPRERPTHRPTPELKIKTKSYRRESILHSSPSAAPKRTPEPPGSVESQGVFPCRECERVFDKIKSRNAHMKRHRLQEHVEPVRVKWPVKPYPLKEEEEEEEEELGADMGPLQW

Row | binding [1] | binding [2] | Substance
1 | binds | binds | FLAG-tagged PKG-Iβ(K390A), kinase dead (enzyme)
2 | binds | binds | FLAG-tagged PKG-Iβ(S64D), constitutively active (from UniProt Q13976-2) (enzyme)
